In the supplement of paper PMC5949888:
Most values lie at the floor of the assay. Slopes are relative: functional sequences can read slightly below zero.

These substances were tested on Saccharomyces cerevisiae PS128 hsf1 delta, HSF1(1-493) fusion (assay: growth estimate (transactivation domain function in HSF1 fusion, heat-shock survival) (a.u. (slope of normalised read count over time)); higher = stronger growth at 37°C, i.e. more transactivation activity). Conditions: library: random library.
In the case of TCIDLVPGAVTSNVLDTSPG, the growth estimate was < -0.25.
RGGR was tested, and the growth estimate was < -0.25.
With TGTRTKLINLYGH the growth estimate was < -0.25.
LSGLEVPPWS was tested, and the growth estimate was < -0.25.
In the case of LLQVGTSFVQARI, the growth estimate was < -0.25.
In the case of PDKYTSTFVGYVST, the growth estimate was < -0.25.
In the case of GSLICGVIASEARSL, the growth estimate was < -0.25.
With YSKCDPGLCHLSSSEQLRVE the growth estimate was < -0.25.
For TRKRTATSMDVSAAGGRASG, the growth estimate was < -0.25.
With GLRWTPWWAEIIACVSKGAF the growth estimate was < -0.25.
In the case of VMGLFACVTTDQRSSRGRIV, the growth estimate was < -0.25.
For TDASAITSLGRCVAWRGGVL, the growth estimate was < -0.25.
For PLGRKP, the growth estimate was < -0.25.
In the case of MMLL, the growth estimate was < -0.25.
With DKGIRCALKSSFNRAGRSCH the growth estimate was < -0.25.
In the case of IMGRERRRSEHYGFWIEKAL, the growth estimate was < -0.25.
With GGLRHIRRRDGTLGPEIRRR the growth estimate was < -0.25.
With NKTGFSTFISHIG the growth estimate was < -0.25.
GSRPDSRWVRQPISISLERD was tested, and the growth estimate was < -0.25.
GPLVGS was tested, and the growth estimate was < -0.25.
For QRGMSTWLRVSI, the growth estimate was < -0.25.
RRHNGLRNGLVAFLVRNASL was tested, and the growth estimate was < -0.25.
For QALSAIPSSPHGDLWCTASS, the growth estimate was < -0.25.
For TRGSEAR, the growth estimate was < -0.25.
RCIL was tested, and the growth estimate was < -0.25.
For TSRGVGISLSCAHATIHMTL, the growth estimate was < -0.25.
With VTCFLYYRSRYWPQ the growth estimate was < -0.25.
With LWLRQRSVGRSWQIRVGKPS the growth estimate was < -0.25.
FYRTAVPWSRKDLWRM was tested, and the growth estimate was < -0.25.
SLHNELVADAAPPGLTSGQP was tested, and the growth estimate was < -0.25.
With VSPCGR the growth estimate was < -0.25.
For LVLFYVQAARTFTVTAWVGL, the growth estimate was < -0.25.
With ATMALSKLHDMEFQHARKVF the growth estimate was < -0.25.
In the case of RLLFPNSPSG, the growth estimate was < -0.25.
LLPSGSFARVSSRYPSRPCA was tested, and the growth estimate was < -0.25.
LHLAIFLGYAHLAK was tested, and the growth estimate was < -0.25.
RYSQLGSIVEGAGDDALILG was tested, and the growth estimate was < -0.25.
With SETEGTADHVGCLSSRAFQW the growth estimate was < -0.25.
For LVVNGYVRCRTRSSLRIKSS, the growth estimate was < -0.25.
Substance FLTRSRK has a growth estimate of -0.246.
With IPGAGWLERFAVTRGRPRPQ the growth estimate was < -0.25.
In the case of LGQLQSVCVQHMVGLTHRSR, the growth estimate was < -0.25.
QKRGSASVGRGGTVLPPSWG was tested, and the growth estimate was < -0.25.
FCREVLKQVGGAGLTGDREP was tested, and the growth estimate was < -0.25.
In the case of IRASMLLFGEAVRYCTPRIG, the growth estimate was < -0.25.
With CIRT the growth estimate was < -0.25.
SARAGAGNLDNIEKANSMGT was tested, and the growth estimate was < -0.25.
Work on LWLRETNTVCQLNDQALWWH yielded a growth estimate of -0.237.
GRGPV was tested, and the growth estimate was -0.232.
For TTGEGAMDVWADVTNPG, the growth estimate was -0.243.
In the case of KVRMLLGYTASTCNTHIKHA, the growth estimate was < -0.25.
In the case of TVNNLCLLPVRGT, the growth estimate was < -0.25.
For PPVVTLS, the growth estimate was < -0.25.
MDAWVLEAPIWPRRRHVAQG gave a growth estimate of 0.0588.
With VQNIFRRYLWGLTAVHD the growth estimate was < -0.25.
IVSLSRTFDVTRTLVAGHPP was tested, and the growth estimate was < -0.25.
In the case of TIGQGRRRTKPVPPMSVIDQ, the growth estimate was < -0.25.
With NTTDCDLEPTVCFVFGPPTI the growth estimate was < -0.25.
With LLPRFIISVLGASLTLQAQC the growth estimate was < -0.25.
With GRSQLMRSGGAREST the growth estimate was < -0.25.
With IHWIPKSSNVSHSRNSV the growth estimate was -0.245.
In the case of FRQVSHVYSPAG, the growth estimate was < -0.25.
With LGPLKRLTRRGPPCHAQLPV the growth estimate was < -0.25.
In the case of ARTG, the growth estimate was < -0.25.
LMSVKRFWI was tested, and the growth estimate was -0.148.
EFRSGTFQSGVGHSISDHWI gave a growth estimate of -0.159.
With CCQICGIRVTLLSGMVMVLG the growth estimate was < -0.25.
With RSGAAMTYGRIVVPRTPYHR the growth estimate was < -0.25.
TAVCPFRRGFPTDSHREFGQ was tested, and the growth estimate was < -0.25.
VGIEKMQST was tested, and the growth estimate was < -0.25.
For SNRVWLRG, the growth estimate was < -0.25.
In the case of TPARAQSNITNFRSIGHQRK, the growth estimate was < -0.25.
With PPYR the growth estimate was < -0.25.
For SRGGF, the growth estimate was < -0.25.
In the case of LCCIGGLGIMGLSVGRSPIR, the growth estimate was < -0.25.
In the case of RRRVSVRLTGRGLLHVPDAS, the growth estimate was < -0.25.
With LNTV the growth estimate was < -0.25.
With NPPFVRRPTPRTRHFRCPAR the growth estimate was < -0.25.
With GIFQSLDSYWRPIDFAGLRP the growth estimate was < -0.25.
In the case of AISVGRFRRLSPIALQAWPP, the growth estimate was < -0.25.
In the case of TTHTSGTIGPNSSTTPFRAF, the growth estimate was < -0.25.
For FQNRIDGVYFFGSSKD, the growth estimate was < -0.25.
GTTFVQTTSTNHVDANKALR was tested, and the growth estimate was < -0.25.
In the case of VEILFKGHL, the growth estimate was < -0.25.
HAIIDN was tested, and the growth estimate was < -0.25.
With MGQLSVIRLWSWTPTVGV the growth estimate was < -0.25.
With RKSDSGKPVELACWSTGSGV the growth estimate was < -0.25.
With THGYHPITIATFGVSFLIFL the growth estimate was < -0.25.
With RIPVSNRGVFTVNACTKPS the growth estimate was < -0.25.
With NDYTSLDLTHMSGVCISFQS the growth estimate was < -0.25.
For LRPGTRGQELAGQRARVLGA, the growth estimate was < -0.25.
In the case of TGEGSCSYKRHMLREGLYLS, the growth estimate was < -0.25.
With AYEAAFTRAGSAERGICGII the growth estimate was < -0.25.
With ADLRTMSNYLRSDVGALNAR the growth estimate was < -0.25.
In the case of SMYLHA, the growth estimate was < -0.25.
In the case of SWGYLAEISGYS, the growth estimate was < -0.25.
SQASLLRRLK was tested, and the growth estimate was < -0.25.
With NIVIVGATCDFPTQIANPPY the growth estimate was < -0.25.
For LRRDSVILIRGQGLTTATIG, the growth estimate was < -0.25.
QLIDDYCDRMSSVYHQPGHK was tested, and the growth estimate was < -0.25.
In the case of CWKTHSLI, the growth estimate was < -0.25.
CSL was tested, and the growth estimate was < -0.25.
For WNGRTLCPVAPVCGVAPPRT, the growth estimate was < -0.25.
ILRPSPSRVTQLGSLAGSAA was tested, and the growth estimate was < -0.25.
For SGGYRLWCTGCGPYLPTC, the growth estimate was < -0.25.
RDISIHRAPRLSL was tested, and the growth estimate was < -0.25.
In the case of LTR, the growth estimate was < -0.25.
In the case of LASYEIFIRKHLNGHYRCVR, the growth estimate was < -0.25.
With DHCLQNTRRGTGVRFRTFGG the growth estimate was < -0.25.
SQTSHCGCAATPR was tested, and the growth estimate was < -0.25.
For THYPGRQSFV, the growth estimate was < -0.25.
In the case of AGWLDLQPGLSRLTPVADPV, the growth estimate was < -0.25.
With QEALEPLQSTPDHWRKFKKL the growth estimate was < -0.25.
TITLGLEEWLCGPAPQSGYP was tested, and the growth estimate was < -0.25.
For HRCNLLKQIRASLGECLSTT, the growth estimate was < -0.25.
In the case of PTWYNPQYVV, the growth estimate was < -0.25.
In the case of YGLVLRTQLRHQT, the growth estimate was < -0.25.
For AVWRGSYVCR, the growth estimate was < -0.25.
With HCTNRRRRRSLLRAVKFLAE the growth estimate was < -0.25.
In the case of EILDQLSTHGIAVEEPTGQP, the growth estimate was < -0.25.
GWATSCW was tested, and the growth estimate was < -0.25.
VRDLISASLKALEGCSPFTA was tested, and the growth estimate was < -0.25.
EIVLGSLGNY was tested, and the growth estimate was < -0.25.
In the case of RYTLADRCGQKLKNSGGRSC, the growth estimate was < -0.25.
VNDHKRRGYFTSTRSVSPGA showed a growth estimate of -0.243.
VAAEPRSVHHSNVCLKMM was tested, and the growth estimate was < -0.25.
With PVYHGSLRVVGKKMSGRLCH the growth estimate was < -0.25.
With IGDVLQG the growth estimate was < -0.25.
With DAPSSRYI the growth estimate was < -0.25.
With ASSFLYGS the growth estimate was < -0.25.
For PLVSKFDIVAV, the growth estimate was < -0.25.
With GSSI the growth estimate was < -0.25.
With VGVRSQYAGAVRLGSAGFEF the growth estimate was < -0.25.
In the case of SHEIRRVGANA, the growth estimate was < -0.25.
In the case of QENISCIRVNAGKVARLRQV, the growth estimate was < -0.25.
For LDTGIGGRIPFSQ, the growth estimate was < -0.25.
AHARDAVYRQVPPASLPRSV was tested, and the growth estimate was < -0.25.
In the case of REAPRLAQPSYYGGIRFRQP, the growth estimate was < -0.25.
For VNEPSASPRVRHVALPLVSA, the growth estimate was < -0.25.
GKDRQGRMSHKKCFCGLIRI was tested, and the growth estimate was < -0.25.
Substance GTIPYDYSTCEKAPRHGADS has a growth estimate of -0.243.
For RTR, the growth estimate was < -0.25.
In the case of QAPFPMRPHTRGLRSSNGRY, the growth estimate was < -0.25.
LVPPIIYDI was tested, and the growth estimate was < -0.25.
With PPVAVHCVPGGLGRSRSGRS the growth estimate was < -0.25.
AIVCD was tested, and the growth estimate was < -0.25.
GFRA was tested, and the growth estimate was < -0.25.
For VWTPTFRPPDRSGVAALLRA, the growth estimate was < -0.25.
With TRLDIFWVLTV the growth estimate was < -0.25.
NGGLSVGRKWYR showed a growth estimate of -0.248.
In the case of HGSDAG, the growth estimate was < -0.25.
SSGIYCAACKAGWRPFITGQ was tested, and the growth estimate was < -0.25.
With GAE the growth estimate was < -0.25.
With AWESPG the growth estimate was < -0.25.
For GPMGHE, the growth estimate was < -0.25.
VRRDELARNPKVSGSRWDMG was tested, and the growth estimate was < -0.25.
